{"source": "PubChem BioAssay AID504784 (Drosophila RNAi Screening Center, 2011)", "test": "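Genome-wide knock-down for genes giving too much or too little stored lipid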 (primary screen)", "cell system": "Drosophila Kc167 embryonic cells", "reagents": "long dsRNA against Drosophila genes, about 250 ng dsRNA per well", "timing": "4 days", "treatment": "cells fed 400 µM oleic acid bound to BSA", "measured": "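Cells imaged and segmented; ratio of lipid droplet area to nuclear area, log-transformed, then normalised as a B-score over the screen; higher means more stored lipid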", "direction": "droplet/nuclear area B-score: higher = more stored lipid (overstorage)", "note": "The screen tested about 17,000 reagents; this is a random part of those with a known target gene and a result. 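Each column is one replicate's B-score; the combined score over replicates was not deposited, so single values may mislead.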 Names joined by + are all predicted targets of the reagent. Further read-outs or replicates are left out here. No sequences are given here."}
{"predicted target": "sle + CG12592", "DRSC id": "DRSC21387", "droplet/nuclear area B-score, replicate 1": -0.125}
{"predicted target": "CG13579", "DRSC id": "DRSC04215", "droplet/nuclear area B-score, replicate 1": 0.298}
{"predicted target": "CG13114", "DRSC id": "DRSC02212", "droplet/nuclear area B-score, replicate 1": -0.0755}
{"predicted target": "NP15.6", "DRSC id": "DRSC16756", "droplet/nuclear area B-score, replicate 1": 1.19}
{"predicted target": "vret", "DRSC id": "DRSC15640", "droplet/nuclear area B-score, replicate 1": -1.33}
{"predicted target": "CG11537", "DRSC id": "DRSC08200", "droplet/nuclear area B-score, replicate 1": -1.4}
{"predicted target": "Cox11", "DRSC id": "DRSC22692", "droplet/nuclear area B-score, replicate 1": -0.93}
{"predicted target": "mrt", "DRSC id": "DRSC15484", "droplet/nuclear area B-score, replicate 1": 0.0493}
{"predicted target": "Pkn", "DRSC id": "DRSC06809", "droplet/nuclear area B-score, replicate 1": 0.152}
{"predicted target": "Pkn", "DRSC id": "DRSC06810", "droplet/nuclear area B-score, replicate 1": 0}
{"predicted target": "Nup93-1", "DRSC id": "DRSC19344", "droplet/nuclear area B-score, replicate 1": -0.285}
{"predicted target": "Yp3", "DRSC id": "DRSC20302", "droplet/nuclear area B-score, replicate 1": 0.914}
{"predicted target": "exp", "DRSC id": "DRSC06313", "droplet/nuclear area B-score, replicate 1": 0.674}
{"predicted target": "HP1b", "DRSC id": "DRSC18418", "droplet/nuclear area B-score, replicate 1": -2.33}
{"predicted target": "CG30056", "DRSC id": "DRSC21752", "droplet/nuclear area B-score, replicate 1": -0.851}
{"predicted target": "bark", "DRSC id": "DRSC00635", "droplet/nuclear area B-score, replicate 1": -0.193}
{"predicted target": "CG34382", "DRSC id": "DRSC10166", "droplet/nuclear area B-score, replicate 1": -0.148}
{"predicted target": "CG34382", "DRSC id": "DRSC10167", "droplet/nuclear area B-score, replicate 1": 0.758}
{"predicted target": "Polr2F", "DRSC id": "DRSC12366", "droplet/nuclear area B-score, replicate 1": -1.29}
{"predicted target": "Lam", "DRSC id": "DRSC03359", "droplet/nuclear area B-score, replicate 1": 0.452}
{"predicted target": "GluRIA", "DRSC id": "DRSC11176", "droplet/nuclear area B-score, replicate 1": 0.787}
{"predicted target": "Srp9", "DRSC id": "DRSC10973", "droplet/nuclear area B-score, replicate 1": 0.0482}
{"predicted target": "mRpL18", "DRSC id": "DRSC06142", "droplet/nuclear area B-score, replicate 1": 2.19}
{"predicted target": "CG13282", "DRSC id": "DRSC02254", "droplet/nuclear area B-score, replicate 1": 0.0416}
{"predicted target": "CG30325", "DRSC id": "DRSC05685", "droplet/nuclear area B-score, replicate 1": 2.11}
{"predicted target": "RacGAP84C", "DRSC id": "DRSC12630", "droplet/nuclear area B-score, replicate 1": -0.676}
{"predicted target": "CG6454", "DRSC id": "DRSC16044", "droplet/nuclear area B-score, replicate 1": -0.407}
{"predicted target": "GstZ2", "DRSC id": "DRSC16479", "droplet/nuclear area B-score, replicate 1": 1.24}
{"predicted target": "CG5447", "DRSC id": "DRSC15801", "droplet/nuclear area B-score, replicate 1": -0.572}
{"predicted target": "Bsg", "DRSC id": "DRSC01010", "droplet/nuclear area B-score, replicate 1": -1.09}
{"predicted target": "Bsg", "DRSC id": "DRSC01011", "droplet/nuclear area B-score, replicate 1": -1.8}
{"predicted target": "CG33476", "DRSC id": "DRSC22888", "droplet/nuclear area B-score, replicate 1": 1.71}
{"predicted target": "CR30029", "DRSC id": "DRSC06724", "droplet/nuclear area B-score, replicate 1": -0.197}
{"predicted target": "Abl", "DRSC id": "DRSC09661", "droplet/nuclear area B-score, replicate 1": -0.33}
{"predicted target": "Abl", "DRSC id": "DRSC23306", "droplet/nuclear area B-score, replicate 1": 0.7}
{"predicted target": "CG33061", "DRSC id": "DRSC09938", "droplet/nuclear area B-score, replicate 1": 0.173}
{"predicted target": "CG33061", "DRSC id": "DRSC22897", "droplet/nuclear area B-score, replicate 1": -0.0325}
{"predicted target": "PPO2", "DRSC id": "DRSC07102", "droplet/nuclear area B-score, replicate 1": 0.0768}
{"predicted target": "erm", "DRSC id": "DRSC00700", "droplet/nuclear area B-score, replicate 1": 0.465}
{"predicted target": "CG8839", "DRSC id": "DRSC07285", "droplet/nuclear area B-score, replicate 1": -0.357}

In a second layout: results already given.
predicted target | DRSC id | droplet/nuclear area B-score, replicate 1
CG30056 | DRSC21752 | -0.851
bark | DRSC00635 | -0.193
CG34382 | DRSC10166 | -0.148
CG34382 | DRSC10167 | 0.758
